These are yes or no findings as the source states them, for the method shown. Binding seen in cells or lysates may run through a third protein. Some results given as binding are weak or reduced against the parent protein; the word gives no strength.
Target: T1, Stimulator of interferon genes (mouse (endogenous in DC2.4)) (UniProt Q3TBT3)
T1 sequence: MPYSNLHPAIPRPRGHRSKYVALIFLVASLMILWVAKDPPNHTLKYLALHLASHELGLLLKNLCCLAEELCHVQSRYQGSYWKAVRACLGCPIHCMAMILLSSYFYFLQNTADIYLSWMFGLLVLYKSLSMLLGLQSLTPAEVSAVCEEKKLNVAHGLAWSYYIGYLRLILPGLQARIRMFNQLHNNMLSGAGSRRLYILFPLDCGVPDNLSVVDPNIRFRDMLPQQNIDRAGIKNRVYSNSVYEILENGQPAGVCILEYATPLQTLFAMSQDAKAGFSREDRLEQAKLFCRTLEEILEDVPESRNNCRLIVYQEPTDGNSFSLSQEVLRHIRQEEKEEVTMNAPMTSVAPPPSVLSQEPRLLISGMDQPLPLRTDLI
Test: co-IP; con DC2.4 cell lysates (nondenaturing lysis) immunoprecipitated with anti-STING antibody, protein A magnetic beads, immunoblotted with anti-TRIM13; cells stimulated with LPS (1 ug/ml, 24 h), DMSO, ESI (20 uM, 4 h) or XRK3F2 (10 uM, 24 h); IgG control

binding: binds
B1: Tripartite motif 13 (protein, UniProt Q9CYB0 1-407)
chain: MELLEEDLTCPICCSLFDDPRVLPCSHNFCKKCLEGLLEGNVRNSLWRPSPFKCPTCRKETSATGVNSLQVNYSLKGIVEKYNKIKISPKMPVCKGHLGQPLNIFCVTDMQLICGICATRGEHTKHVFSSIEDAYAREKNAFESLFQSFETWRRGDALSRLDTLETNKRKALQLLTKDSDKVKEFFEKLQHTLDQKKNEILSDFETMKLAVMQTYDPEINKINTILQEQRMAFNIAEAFKDVSEPIIFLQQMQEFREKIKVIKETPLPHSNLPTSPLMKNFDTSQWGDIKLVDVDKLSLPQDTGVFTSKIPWYPYLLLMMVVLLGLLIFFGPTVFLEWSPLDELATWKDYLSSFNSYLTKSADFIEQSVFYWEQMTDGFFIFGERVKNVSLVALNNVAEFICKYKLL

From PMC12870119
